According to PMC12303078:
These are yes or no findings as the source states them, for the method shown. Binding seen in cells or lysates may run through a third protein. Some binding calls cover weakened binding; strength is not graded here. For some assays here: Tags and fused reporters may be left off the sequences shown. Each block holds one binder with its values, some of them ahead of it.

Columns and labels:
[1] = biological target: MGA (mouse (endogenous in ESCs)) (UniProt A2AWL7); assay: co-IP; anti-MGA antibody on Dynabeads with anti-rabbit IgG, overnight 4°C; nuclear extract / lysate (10 mM Tris-HCl pH8.0, 1 mM EDTA, 140 mM NaCl, 1% NP-40) of wild-type, parental, MGAΔFAM or Zmym2-null mouse ESCs; with or without a mixture of DNase and RNase; western blot
[2] = biological target: T1, 3×Flag-tagged carboxy-terminal domain of MGA (aa2445-2844) (UniProt A2AWL7); assay: co-IP; HEK293FT cells co-transfected with Flag-tagged MGA C-terminal portion (wild type or mutants) and HA-tagged ATF7IP; whole-cell extracts 48 h after transfection; Dynabeads with anti-mouse IgG antibody for immunoprecipitation; western blot
T1 sequence: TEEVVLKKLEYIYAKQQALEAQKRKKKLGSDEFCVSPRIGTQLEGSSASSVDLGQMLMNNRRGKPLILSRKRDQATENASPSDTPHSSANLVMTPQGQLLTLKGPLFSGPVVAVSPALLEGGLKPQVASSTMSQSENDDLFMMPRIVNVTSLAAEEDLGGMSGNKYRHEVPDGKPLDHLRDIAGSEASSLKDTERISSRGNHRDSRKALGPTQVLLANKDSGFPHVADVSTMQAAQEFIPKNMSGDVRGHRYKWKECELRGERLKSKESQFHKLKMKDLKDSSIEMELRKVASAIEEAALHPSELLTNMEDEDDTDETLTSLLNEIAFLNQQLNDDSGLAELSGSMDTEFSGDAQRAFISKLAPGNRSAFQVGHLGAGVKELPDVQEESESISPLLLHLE

[3] = biological target: MGA (mouse (endogenous in ESCs)) (UniProt A2AWL7); assay: co-IP; anti-MGA antibody, lysate of Atf7ip-null mouse ESCs; western blot for SETDB1 and PCGF6

- binding [1]: binds
B1: ATF7IP (protein, UniProt Q7TT18 1-1306)
chain: MDSVEEPQKKVFKARKTMRASDRQQLDAVHRVKGELLRADGKLLNGSHENGDLDPTSPLENTDCIQDREEVNGIDGICFQSEESTTEWKETPCMPNVAVKNKQEDLNSEALSPSITCDLSSRVTTEPGSGSPASDNPGCGTPVSDNPASDNPASDNPASDNPDSGDLAAGELATTVQATGDSACEEPPSSDPSSSDPTSSEPSSSEPTCSEPISGDPVSEEAASHDLVSGDSTCSEPVSGEPVSHEAASSEPATSEPASDEPVARVVAACELAPGESALDDCAPSGDSQSDEPPSSEDSLPRSVCSGLASGELTPGELSVEPATDTVKPSSSAVCEAGPDPDKTEPSSNNSDDCPGKSEDDEHLDQIQSKDSCDEGNKVNSNVVEKEEPLETHSAIICSDLPPENTTKIAEDPIAEPALEEEAISSSMEVDQSEKDEHKSPAEPVAAVSEDPAEEDKEDTVVDNTDSMETDEIIPILEKLAPTEDELSCFSKASLLPVETSQDLEDKMEGSFGSPSKQESSENLPKEAFLVLSDEEDLSCGKDESEAVAQSKMSTPEGEKSEKDGKAEEEERVPAEEQPPVRNEFSRRKRSKSEDMDSVESKRRRYMDEEYEAEFQVKITAKGDINQKLQKVIQWLLQEKLCALQCAVFDKTLAELKTRVEKIECNKRHKAVLTELQAKIARLTKRFGAAKDDLKKRQESPPNPPISPGKPANDTNSNNNMTYRNAGTVRQLLESKRNVSEGPPPSFQTPVNTVSSASHATSTAVVSSQPKLQTSATSGSLPAAPLLPAPSTATVVATTQVPSGTPQPTISLQPLPVILHVPVAVTSQPQLLQSHPGTLVTNQPSGNVEFISVQSQPTVSGLTKNPVSLPPLPNPTKPNIPSVPSPSSIQRNSSTTAAPLGTTLAVQAVPTAHSIVQATRTSLPTVGPSGLYSSSSSRGPIQMKIPISTFSPPSSAEQNSSATPRIVTENQTNKTVDSSINKKAADSTSQSGKASSSDSSGVIDLTMDDEESGTTQDPKKISPPSSSTVSTSQPMSRPLQPILPAPPLQPSGVPTSGPSQATIHVLPTAPTTVNVTHRPVTQVTTRLPVPRAPANHQVVYTTLPAPTTQAPLRGTVMQAPAVRQVNPQNSVTVRVPQTTTYVVNNGLTLGSAGPQLTVHHRPPQVHNEPPRPLHPAPLPEAPQPQRLPPEAASTSLPQKPHLKLARVQSQNGIVLSWSVLEVDRSCATVDSYHLYAYHEEPSATVPSQWKKIGEVKALPLPMACTLTQFVSGSKYYFAVRAKDIYGRFGPFCDPQSTDVISSSQNS

- binding [2]: binds
B2: HA-tagged ATF7IP (protein, UniProt Q7TT18 1-1306)
chain: B1 chain

- binding [1]: binds
- binding [3]: binds
B3: PCGF6 (protein, UniProt Q99NA9 1-353)
chain: MDEAETDATENKRASEAKRASAMPPPPPPPPPISPPALIPAPAAGEEGPASLGQAGAAGCSRSRPPALEPERSLGRLRGRFEDYDEELEEEEEMEEEEEEEEEMSHFSLRLESGRADSEDEEERLINLVELTPYILCSICKGYLIDATTITECLHTFCKSCIVRHFYYSNRCPKCNIVVHQTQPLYNIRLDRQLQDIVYKLVINLEEREKKQMHDFYKERGLEVPKPAAPQPVPSSKGKTKKVLESVFRIPPELDMSLLLEFIGANEDTGHFKPLEKKFVRVSGEATIGHVEKFLRRKMGLDPACQVDIICGDHLLERYQTLREIRRAIGDTAMQDGLLVLHYGLVVSPLKIT

- binding [1]: binds
B4: ZMYM2 (protein, UniProt Q9CU65 1-1376)
chain: MDTSSVGTLELTDQTPVLLGSTAMATSLTNVGNSFSGPPNPLVSRSSKFQNSSVEDDDDVVFIEPVQPPPSSAPLVADQRPITFTSSKNEELQGNDPKILPSSKELAPQKGSVSETIVIDDEEDMETNQGQEKSSSNFIERRPSETKNRTNDVDFSSSTFSRSKVNAGVSNSGITTEPDSEIQIANVTTLETGVSSVSDGQLESTDGRDMNLMITHVTSLHNTSLGDGSNGLQSSNFGVNIQTYTPSLTSQTKAGVGPFNPGRMNVAGDVFQNGESAPHHNPDSWISQSASFPRNQKQQGVDSLSPVASLPKQIFQPSNQQPTKPVKVTCANCKKPLQKGQTAYQRKGSAHLFCSTTCLSSFSHKPAPKKLCVMCKKDITTMKGTIVAQVDSSESFQEFCSTSCLSLYEDKQSPAKGALNKSRCTICGKLTEIRHEVSFKNMTHKLCSDHCFNRYRMANGLIMNCCEQCGEYLPSKGAGNNVLVVDGQQKRFCCQSCVTEYKQVGSHPSFLKEVRDHMQDSFLMQPEKYGKLTTCTGCRTQCRFFDMTQCIGPNGYMEPYCSTACMNSHKTKYAKSQSLGIICHFCKRNSLPQYQATMPDGKLYNFCNSSCVAKFQALSMQSSPNGQFVAPSDIQLKCNYCKNSFCSKPEILEWENKVHQFCSKTCSDDYKKLHCIVTYCEYCQEEKTLHETVNFSGVKRPFCSEGCKLLYKQDFARRLGLRCVTCNYCSQLCKKGATKELDGVVRDFCSEDCCKKFQEWYYKAARCDCCKSQGTLKERVQWRGEMKHFCDQHCLLRFYCQQNEPNMTTQKGPENLHYDQGCQTSRTKMTGSAPPPSPTPNKEMKNKAILCKPLTMTKATYCKPHMQTKSCQTDENWKTEYVPVPIPVPVYVPVPMHMYSQNIPVPTTVPVPVPVPVFLPAPLDSSEKIPATVEDLKSKVSSDPLDSELLTMTDMMTEEEGKAEASNINSVIIETDIIGSDLTKNSDPDIQSNMPDVPYEPDLDIEIDFPRAAEELDMENEFLLPPVFGEEYEEQPRPRSKKKGTKRKAVSGYQSHDDSSDNSECSFPFKYTYGVNAWKHWVKTRQLDEDLLVLDELKSSKSVKLKEDLLSHTTAELNYGLAHFVNEIRRPNGENYAPDSIYYLCLGIQEYLCGSNRKDNIFIDPGYQMFEQELNKILRSWQPSILPDGSIFSRVEEDYLWRIKQLGSHSPVALLNTLFYFNTKYFGLKTVEQHLRLSFGTVFRHWKKNPLTMENKACLRYQVSSLCGTDNEDKIATGKRKHEDDEPVFEQVENTANPSRCPVKMFECYLSKSPQNLNQRMDVFYLQPECSSSTDSPVWYTSTSLDRNTLENMLVRVLLVKDIYDKDNYELDEDTD
